Laboratory results: PubChem BioAssay AID1224830 (NIAID, 2016)
Aim: 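Host factors that control LPS-induced TNF expression in human macrophages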 (primary screen). Cell system: human THP-1 monocytic leukaemia cells, TNF dual-luciferase reporter clone, PMA-differentiated to macrophage-like cells. Reagents: siRNA pool against human genes, 50 nM. Time to read-out: LPS for 4 h, given about 3 days after siRNA transfection. Treatment: bacterial LPS (TLR4 ligand), 10 ng/ml. Read-out: 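Ratio of firefly to renilla light, scaled to the plate median and expressed as a robust z-score per replicate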. Reading the numbers: TNF reporter robust z-score: higher = stronger TNF reporter response to LPS. Rule for the call: 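a well is active when its z-score exceeds 2.8 or falls below -1.5; control wells carry no call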.
Shown is a random part of about 18,000 reagents. Over the whole deposit, about 2,900 (16%) were called active. 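Calls are made per well; low scores hint the gene aids the LPS response, high scores that it dampens it.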 Entries without a mark were called inactive. Repeated entries: four replicate wells of each siRNA pool.

| gene knocked down | TNF reporter robust z-score |
| --- | --- |
| CNOT4 (CCR4-NOT transcription complex subunit 4) | 0.68 |
| CNOT4 (CCR4-NOT transcription complex subunit 4) | 0.64 |
| CNOT4 (CCR4-NOT transcription complex subunit 4) | 0.57 |
| CNOT4 (CCR4-NOT transcription complex subunit 4) | 2.93 (active) |
| DNAJC5B (DnaJ heat shock protein family (Hsp40) member C5 beta) | -0.3 |
| DNAJC5B (DnaJ heat shock protein family (Hsp40) member C5 beta) | 1.28 |
| DNAJC5B (DnaJ heat shock protein family (Hsp40) member C5 beta) | 1.77 |
| DNAJC5B (DnaJ heat shock protein family (Hsp40) member C5 beta) | 0.29 |
| CATSPER1 (cation channel sperm associated 1) | -1.07 |
| CATSPER1 (cation channel sperm associated 1) | -0.49 |
| CATSPER1 (cation channel sperm associated 1) | -0.35 |
| CATSPER1 (cation channel sperm associated 1) | 0.53 |
| LAMTOR2 (late endosomal/lysosomal adaptor, MAPK and MTOR activator 2) | -1.65 (active) |
| LAMTOR2 (late endosomal/lysosomal adaptor, MAPK and MTOR activator 2) | 1.37 |
| LAMTOR2 (late endosomal/lysosomal adaptor, MAPK and MTOR activator 2) | -1.94 (active) |
| LAMTOR2 (late endosomal/lysosomal adaptor, MAPK and MTOR activator 2) | -1.31 |
| IFNW1 (interferon omega 1) | 0.11 |
| IFNW1 (interferon omega 1) | -0.03 |
| IFNW1 (interferon omega 1) | -0.44 |
| IFNW1 (interferon omega 1) | 0.21 |
| CPNE3 (copine 3) | -0.99 |
| CPNE3 (copine 3) | -0.95 |
| CPNE3 (copine 3) | -0.48 |
| CPNE3 (copine 3) | -1.46 |
| RCL1 (RNA terminal phosphate cyclase like 1) | 0.38 |
| RCL1 (RNA terminal phosphate cyclase like 1) | 0.18 |
| RCL1 (RNA terminal phosphate cyclase like 1) | -0.22 |
| MECP2 (methyl-CpG binding protein 2) | 2.25 |
| MECP2 (methyl-CpG binding protein 2) | 2.34 |
| MECP2 (methyl-CpG binding protein 2) | 1.33 |
| MECP2 (methyl-CpG binding protein 2) | 1.65 |
| GEMIN5 (gem nuclear organelle associated protein 5) | -0.5 |
| GEMIN5 (gem nuclear organelle associated protein 5) | 1.14 |
| GEMIN5 (gem nuclear organelle associated protein 5) | -0.09 |
| GEMIN5 (gem nuclear organelle associated protein 5) | 0.58 |
| RPLP0 (ribosomal protein lateral stalk subunit P0) | -0.65 |
| RPLP0 (ribosomal protein lateral stalk subunit P0) | 1.18 |
| RPLP0 (ribosomal protein lateral stalk subunit P0) | 0.16 |
| RPLP0 (ribosomal protein lateral stalk subunit P0) | 2.22 |
| FGFR3 (fibroblast growth factor receptor 3) | -1.17 |
| FGFR3 (fibroblast growth factor receptor 3) | -1.34 |
| FGFR3 (fibroblast growth factor receptor 3) | -1.49 |
| FGFR3 (fibroblast growth factor receptor 3) | -0.84 |
| DCUN1D5 (defective in cullin neddylation 1 domain containing 5) | -0.23 |
| DCUN1D5 (defective in cullin neddylation 1 domain containing 5) | -0.11 |
| DCUN1D5 (defective in cullin neddylation 1 domain containing 5) | 0.87 |
| DCUN1D5 (defective in cullin neddylation 1 domain containing 5) | -0.26 |
| MYCBP2 (MYC binding protein 2) | -0.53 |
| MYCBP2 (MYC binding protein 2) | -1.15 |
| MYCBP2 (MYC binding protein 2) | -1.09 |
| MYCBP2 (MYC binding protein 2) | -0.7 |

The list goes on (4 carried over from the part before).
| gene knocked down | TNF reporter robust z-score |
| --- | --- |
| MYCBP2 (MYC binding protein 2) | -0.53 |
| MYCBP2 (MYC binding protein 2) | -1.15 |
| MYCBP2 (MYC binding protein 2) | -1.09 |
| MYCBP2 (MYC binding protein 2) | -0.7 |
| FOXJ2 (forkhead box J2) | -1.09 |
| FOXJ2 (forkhead box J2) | 0.11 |
| FOXJ2 (forkhead box J2) | -0.11 |
| FOXJ2 (forkhead box J2) | 0.4 |
| MRC2 (mannose receptor C-type 2) | -0.08 |
| MRC2 (mannose receptor C-type 2) | 2.65 |
| MRC2 (mannose receptor C-type 2) | 2.24 |
| MRC2 (mannose receptor C-type 2) | 1.02 |
| TIAM2 (TIAM Rac1 associated GEF 2) | -1.07 |
| TIAM2 (TIAM Rac1 associated GEF 2) | -0.1 |
| TIAM2 (TIAM Rac1 associated GEF 2) | -0.32 |
| TIAM2 (TIAM Rac1 associated GEF 2) | 0.35 |
| C6orf136 (chromosome 6 open reading frame 136) | -0.57 |
| C6orf136 (chromosome 6 open reading frame 136) | -1.5 |
| C6orf136 (chromosome 6 open reading frame 136) | -0.94 |
| C6orf136 (chromosome 6 open reading frame 136) | -0.27 |
| ZNF875 (zinc finger protein 875) | -1.45 |
| ZNF875 (zinc finger protein 875) | -1.52 (active) |
| ZNF875 (zinc finger protein 875) | -1.09 |
| ZNF875 (zinc finger protein 875) | -1.31 |
| THAP12 (THAP domain containing 12) | 0.59 |
| THAP12 (THAP domain containing 12) | 0.39 |
| THAP12 (THAP domain containing 12) | -0.3 |
| THAP12 (THAP domain containing 12) | 0.32 |
| SPATA19 (spermatogenesis associated 19) | -1.41 |
| SPATA19 (spermatogenesis associated 19) | -1.71 (active) |
| SPATA19 (spermatogenesis associated 19) | -0.16 |
| SPATA19 (spermatogenesis associated 19) | -1.42 |
| DEFB121 (defensin beta 121) | 0.39 |
| DEFB121 (defensin beta 121) | 2.67 |
| DEFB121 (defensin beta 121) | 0.3 |
| DEFB121 (defensin beta 121) | 0.63 |
| ENTREP1 (endosomal transmembrane epsin interactor 1) | 1.21 |
| ENTREP1 (endosomal transmembrane epsin interactor 1) | -0.92 |
| ENTREP1 (endosomal transmembrane epsin interactor 1) | -0.58 |
| ENTREP1 (endosomal transmembrane epsin interactor 1) | -0.01 |
| MYO1A (myosin IA) | -0.69 |
| MYO1A (myosin IA) | -0.41 |
| MYO1A (myosin IA) | -1.43 |
| MYO1A (myosin IA) | -0.93 |
| GALNT15 (polypeptide N-acetylgalactosaminyltransferase 15) | 1.45 |
| GALNT15 (polypeptide N-acetylgalactosaminyltransferase 15) | 0.85 |
| GALNT15 (polypeptide N-acetylgalactosaminyltransferase 15) | 2.02 |
| GALNT15 (polypeptide N-acetylgalactosaminyltransferase 15) | 1.49 |
| TCF23 (transcription factor 23) | -0.42 |
| TCF23 (transcription factor 23) | 0.24 |
| TCF23 (transcription factor 23) | -0.19 |
| TCF23 (transcription factor 23) | 0.32 |
| PLAU (plasminogen activator, urokinase) | -0.68 |
| PLAU (plasminogen activator, urokinase) | 0.33 |
| PLAU (plasminogen activator, urokinase) | -0.61 |
| PLAU (plasminogen activator, urokinase) | 0.93 |
| NR6A1 (nuclear receptor subfamily 6 group A member 1) | -0.36 |
| NR6A1 (nuclear receptor subfamily 6 group A member 1) | 0.04 |
| NR6A1 (nuclear receptor subfamily 6 group A member 1) | 0.92 |
| NR6A1 (nuclear receptor subfamily 6 group A member 1) | -0.28 |
| CACNA1H (calcium voltage-gated channel subunit alpha1 H) | 0.06 |
| CACNA1H (calcium voltage-gated channel subunit alpha1 H) | -0.15 |
| CACNA1H (calcium voltage-gated channel subunit alpha1 H) | 1.51 |
| CACNA1H (calcium voltage-gated channel subunit alpha1 H) | 1.06 |
